Like-named read-outs stand apart in the source and are kept apart here. At least one compound was matched to its structure with a doubt left. Some entries share one result that the patent states for a list of compounds. Bridge positions count the residues as written; N and C are the ends. Square brackets hold non-standard residues; d marks the D form. Peptide text beside a SMILES is read from it. * marks the point of attachment. Nle = CCCC[C@H](N)C(=O)O; X1 = N=C(N)NCCCC(CO)N*; X2 = NC(=O)CCC(CO)N*
Target: T1, human Kv1.3 voltage-gated K+ channel (Homo sapiens, UniProt P22001)
T1 construct: host or cells: CHO-DUKX
Format: cell-based

The chains behind the UniProt entries cited, without tags or fusion partners.
UniProt P22001, whole entry: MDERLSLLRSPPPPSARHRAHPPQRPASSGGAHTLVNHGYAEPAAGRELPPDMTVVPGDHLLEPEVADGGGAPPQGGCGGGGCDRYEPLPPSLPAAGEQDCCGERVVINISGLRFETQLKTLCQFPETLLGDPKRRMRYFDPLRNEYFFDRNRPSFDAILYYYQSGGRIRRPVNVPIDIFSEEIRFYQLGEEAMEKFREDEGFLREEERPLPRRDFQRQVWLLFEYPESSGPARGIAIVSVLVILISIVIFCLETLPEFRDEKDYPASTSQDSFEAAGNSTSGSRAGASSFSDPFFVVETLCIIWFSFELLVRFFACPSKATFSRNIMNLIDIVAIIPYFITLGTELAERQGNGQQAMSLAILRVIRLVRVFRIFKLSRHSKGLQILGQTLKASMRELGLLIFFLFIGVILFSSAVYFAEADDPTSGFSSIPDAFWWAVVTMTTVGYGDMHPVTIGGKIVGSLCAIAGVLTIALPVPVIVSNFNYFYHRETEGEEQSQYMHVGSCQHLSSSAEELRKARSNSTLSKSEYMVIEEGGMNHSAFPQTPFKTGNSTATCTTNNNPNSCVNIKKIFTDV

[1] = inhibition of thallium flux, CHO-DUKX cells with human Kv1.3, read-out: IC50

SMILES | IC50 [nM] | IC50 [1] [nM]
CCCC[C@@H]1NC(=O)[C@@H]2CSSC[C@H](NC(=O)[C@H](CCCNC(=N)N)NC(=O)[C@H](CCCC)NC(=O)[C@H](CCC(=O)O)NC(=O)[C@@H](NC(=O)[C@@H]3CCCN3)[C@@H](C)CC)C(=O)N[C@@H](CO)C(=O)N[C@@H](C)C(=O)N[C@@H](CO)C(=O)N[C@@H](C(C)C)C(=O)N[C@@H](CCC(=O)O)C(=O)N[C@H]3CSSC[C@H](NC(=O)[C@H](CCCCN)NC(=O)[C@H](CCCCN)NC(=O)[C@H](CC(N)=O)NC1=O)C(=O)N[C@@H](CCCCN)C(=O)N[C@H](C(=O)N[C@@H](Cc1ccc(O)cc1)C(=O)N1CCC[C@H]1C(=O)N[C@@H](CCCNC(=N)N)C(=O)O)CSSC[C@H](NC(=O)[C@H](CCCCN)NC(=O)[C@H](CCC(N)=O)NC(=O)[C@H](CCCCN)NC3=O)C(=O)N[C@@H](CC(C)C)C(=O)N[C@@H](C)C(=O)N[C@@H](C)C(=O)N[C@@H]([C@@H](C)CC)C(=O)NCC(=O)N[C@@H](CO)C(=O)N[C@@H]([C@@H](C)CC)C(=O)N[C@@H](Cc1ccccc1)C(=O)NCC(=O)N[C@@H](CCCCN)C(=O)N2 [Compound 101] (H-PIE[Nle]RCSASVECKQKCLAAIGSIFGKC[Nle]NKKCKCYPR-OH; disulfide 6-27, 12-32, 16-34) | ≤ 0.3 | –
CCCC[C@@H]1NC(=O)[C@@H]2CSSC[C@H](NC(C)=O)C(=O)N[C@@H](CO)C(=O)N[C@@H](C)C(=O)N[C@@H](CO)C(=O)N[C@@H](C(C)C)C(=O)N[C@@H](CCC(=O)O)C(=O)N[C@H]3CSSC[C@H](NC(=O)[C@H](CCCCN)NC(=O)[C@H](CCCCN)NC(=O)[C@H](CC(N)=O)NC1=O)C(=O)N[C@@H](CCCCN)C(=O)N[C@H](C(=O)N[C@@H](Cc1ccc(O)cc1)C(=O)N1CCC[C@H]1C(=O)N[C@@H](CCCNC(=N)N)C(N)=O)CSSC[C@H](NC(=O)[C@H](CCCCN)NC(=O)[C@H](CCC(N)=O)NC(=O)[C@H](CCCCN)NC3=O)C(=O)N[C@@H](CC(C)C)C(=O)N[C@@H](CCCCN)C(=O)N[C@@H](C)C(=O)N[C@@H]([C@@H](C)CC)C(=O)NCC(=O)N[C@@H](CO)C(=O)N[C@@H]([C@@H](C)CC)C(=O)N[C@@H](Cc1ccccc1)C(=O)NCC(=O)N[C@@H](CCCCN)C(=O)N2 [Compound 105] (Ac-CSASVECKQKCLKAIGSIFGKC[Nle]NKKCKCYPR-NH2; disulfide 1-22, 7-27, 11-29) | ≤ 0.3 | –
CC[C@H](C)[C@@H]1NC(=O)[C@H](C)NC(=O)[C@H](C)NC(=O)[C@H](CC(C)C)NC(=O)[C@@H]2CSSC[C@@H](C(=O)N[C@@H](Cc3ccc(O)cc3)C(=O)N3CCC[C@H]3C(=O)N[C@@H](CCCNC(=N)N)C(=O)O)NC(=O)[C@H](CCCCN)NC(=O)[C@@H]3CSSC[C@H](NC(=O)[C@H](CCC(=O)O)NC(=O)[C@H](C(C)C)NC(=O)[C@H](CO)NC(=O)[C@H](C)NC(=O)[C@H](CO)NC(=O)[C@@H](NC(=O)[C@H](CCCNC(=N)N)NC(=O)[C@H](CC(C)C)NC(C)=O)CSSC[C@H](NC(=O)[C@H](CCCCN)NC(=O)CNC(=O)[C@H](Cc4ccccc4)NC(=O)[C@H]([C@@H](C)CC)NC(=O)[C@H](CO)NC(=O)CNC1=O)C(=O)N[C@@H](CCSC)C(=O)N[C@@H](CC(N)=O)C(=O)N[C@@H](CCCCN)C(=O)N[C@@H](CCCCN)C(=O)N3)C(=O)N[C@@H](CCCCN)C(=O)N[C@@H](CCC(N)=O)C(=O)N[C@@H](CCCCN)C(=O)N2 [Compound 116] (Ac-LRCSASVECKQKCLAAIGSIFGKCMNKKCKCYPR-OH; disulfide 3-24, 9-29, 13-31) | ≤ 0.3 | –
CCCC[C@H](NC(=O)[C@@H]1CCCN1)C(=O)N[C@@H](CCC(=O)O)C(=O)N[C@@H](CCCC)C(=O)N[C@@H](CCCNC(=N)N)C(=O)N[C@H]1CSSC[C@@H]2NC(=O)[C@H](CCCCN)NC(=O)CNC(=O)[C@H](Cc3ccccc3)NC(=O)[C@H]([C@@H](C)CC)NC(=O)[C@H](CO)NC(=O)CNC(=O)[C@H]([C@@H](C)CC)NC(=O)[C@H](C)NC(=O)[C@H](C)NC(=O)[C@H](CC(C)C)NC(=O)[C@@H]3CSSC[C@@H](C(=O)N[C@@H](Cc4ccc(O)cc4)C(=O)N4CCC[C@H]4C(=O)N[C@@H](CCCNC(=N)N)C(=O)N[C@@H](CCCNC(=N)N)C(=O)O)NC(=O)[C@H](CCCCN)NC(=O)[C@H](CSSC[C@H](NC(=O)[C@H](CCC(=O)O)NC(=O)[C@H](C(C)C)NC(=O)[C@H](CO)NC(=O)[C@H](C)NC(=O)[C@H](CO)NC1=O)C(=O)N[C@@H](CCCCN)C(=O)N[C@@H](CCC(N)=O)C(=O)N[C@@H](CCCCN)C(=O)N3)NC(=O)[C@H](CCCCN)NC(=O)[C@H](CCCCN)NC(=O)[C@H](CC(N)=O)NC(=O)[C@H](CCCC)NC2=O [Compound 122] (H-P[Nle]E[Nle]RCSASVECKQKCLAAIGSIFGKC[Nle]NKKCKCYPRR-OH; disulfide 6-27, 12-32, 16-34) | ≤ 0.3 | –
CCCC[C@H](NC(=O)[C@@H]1CCCN1)C(=O)N[C@@H](CCC(=O)O)C(=O)N[C@@H](CCCC)C(=O)N[C@@H](CCCNC(=N)N)C(=O)N[C@H]1CSSC[C@@H]2NC(=O)[C@H](CCCCN)NC(=O)CNC(=O)[C@H](Cc3ccccc3)NC(=O)[C@H]([C@@H](C)CC)NC(=O)[C@H](CO)NC(=O)CNC(=O)[C@H]([C@@H](C)CC)NC(=O)[C@H](C)NC(=O)[C@H](C)NC(=O)[C@H](CC(C)C)NC(=O)[C@@H]3CSSC[C@@H](C(=O)N[C@@H](Cc4ccc(O)cc4)C(=O)N4CCC[C@H]4C(=O)N[C@@H](CCCNC(=N)N)C(=O)N[C@@H](Cc4c[nH]cn4)C(=O)N[C@@H](CCCNC(=N)N)C(=O)O)NC(=O)[C@H](CCCCN)NC(=O)[C@H](CSSC[C@H](NC(=O)[C@H](CCC(=O)O)NC(=O)[C@H](C(C)C)NC(=O)[C@H](CO)NC(=O)[C@H](C)NC(=O)[C@H](CO)NC1=O)C(=O)N[C@@H](CCCCN)C(=O)N[C@@H](CCC(N)=O)C(=O)N[C@@H](CCCCN)C(=O)N3)NC(=O)[C@H](CCCCN)NC(=O)[C@H](CCCCN)NC(=O)[C@H](CC(N)=O)NC(=O)[C@H](CCCC)NC2=O [Compound 129] (H-P[Nle]E[Nle]RCSASVECKQKCLAAIGSIFGKC[Nle]NKKCKCYPRHR-OH; disulfide 6-27, 12-32, 16-34) | ≤ 0.15 | –
CCCC[C@H](NC(=O)[C@@H]1CCCN1)C(=O)N[C@@H](CCC(=O)O)C(=O)N[C@@H](CCCC)C(=O)N[C@@H](CCCNC(=N)N)C(=O)N[C@H]1CSSC[C@@H]2NC(=O)[C@H](CCCCN)NC(=O)CNC(=O)[C@H](Cc3ccccc3)NC(=O)[C@H]([C@@H](C)CC)NC(=O)[C@H](CO)NC(=O)CNC(=O)[C@H]([C@@H](C)CC)NC(=O)[C@H](C)NC(=O)[C@H](C)NC(=O)[C@H](CC(C)C)NC(=O)[C@@H]3CSSC[C@@H](C(=O)N[C@@H](Cc4ccc(O)cc4)C(=O)N4CCC[C@H]4C(=O)NC(CO)CCCNC(=N)N)NC(=O)[C@H](CCCCN)NC(=O)[C@H](CSSC[C@H](NC(=O)[C@H](CCC(=O)O)NC(=O)[C@H](C(C)C)NC(=O)[C@H](CO)NC(=O)[C@H](C)NC(=O)[C@H](CO)NC1=O)C(=O)N[C@@H](CCCCN)C(=O)N[C@@H](CCC(N)=O)C(=O)N[C@@H](CCCCN)C(=O)N3)NC(=O)[C@H](CCCCN)NC(=O)[C@H](CCCCN)NC(=O)[C@H](CC(N)=O)NC(=O)[C@H](CCCC)NC2=O (stereo partly shown) [Compound 131] (H-P[Nle]E[Nle]RCSASVECKQKCLAAIGSIFGKC[Nle]NKKCKCYP-X1; disulfide 6-27, 12-32, 16-34) | ≤ 0.3 | 0.156
CCCC[C@H](NC(=O)[C@@H]1CCCN1)C(=O)N[C@@H](CCC(=O)O)C(=O)N[C@@H](CCCC)C(=O)N[C@@H](CCCNC(=N)N)C(=O)N[C@H]1CSSC[C@@H]2NC(=O)[C@H](CCCCN)NC(=O)CNC(=O)[C@H](Cc3ccccc3)NC(=O)[C@H]([C@@H](C)CC)NC(=O)[C@H](CO)NC(=O)CNC(=O)[C@H]([C@@H](C)CC)NC(=O)[C@H](C)NC(=O)[C@H](C)NC(=O)[C@H](CC(C)C)NC(=O)[C@@H]3CSSC[C@@H](C(=O)N[C@@H](Cc4ccc(O)cc4)C(=O)N4CCC[C@H]4C(=O)N[C@@H](CCCNC(=N)N)C(=O)NC(CO)CCC(N)=O)NC(=O)[C@H](CCCCN)NC(=O)[C@H](CSSC[C@H](NC(=O)[C@H](CCC(=O)O)NC(=O)[C@H](C(C)C)NC(=O)[C@H](CO)NC(=O)[C@H](C)NC(=O)[C@H](CO)NC1=O)C(=O)N[C@@H](CCCCN)C(=O)N[C@@H](CCC(N)=O)C(=O)N[C@@H](CCCCN)C(=O)N3)NC(=O)[C@H](CCCCN)NC(=O)[C@H](CCCCN)NC(=O)[C@H](CC(N)=O)NC(=O)[C@H](CCCC)NC2=O (stereo partly shown) [Compound 132] (H-P[Nle]E[Nle]RCSASVECKQKCLAAIGSIFGKC[Nle]NKKCKCYPR-X2; disulfide 6-27, 12-32, 16-34) | ≤ 0.3 | 0.224
CCCC[C@H](NC(=O)[C@@H]1CCCN1)C(=O)N[C@@H](CCC(=O)O)C(=O)N[C@@H](CCCC)C(=O)N[C@@H](CCCNC(=N)N)C(=O)N[C@H]1CSSC[C@@H]2NC(=O)[C@H](CCCCN)NC(=O)CNC(=O)[C@H](Cc3ccccc3)NC(=O)[C@H]([C@@H](C)CC)NC(=O)[C@H](CO)NC(=O)CNC(=O)[C@H]([C@@H](C)CC)NC(=O)[C@H](C)NC(=O)[C@H](C)NC(=O)[C@H](CC(C)C)NC(=O)[C@@H]3CSSC[C@@H](C(=O)N[C@@H](Cc4ccc(O)cc4)C(=O)N4CCC[C@H]4C(=O)N[C@@H](CCCNC(=N)N)C(=O)N[C@@H](CCCNC(=N)N)C(=O)N[C@@H](Cc4ccc(O)cc4)C(=O)O)NC(=O)[C@H](CCCCN)NC(=O)[C@H](CSSC[C@H](NC(=O)[C@H](CCC(=O)O)NC(=O)[C@H](C(C)C)NC(=O)[C@H](CO)NC(=O)[C@H](C)NC(=O)[C@H](CO)NC1=O)C(=O)N[C@@H](CCCCN)C(=O)N[C@@H](CCC(N)=O)C(=O)N[C@@H](CCCCN)C(=O)N3)NC(=O)[C@H](CCCCN)NC(=O)[C@H](CCCCN)NC(=O)[C@H](CC(N)=O)NC(=O)[C@H](CCCC)NC2=O [Compound 134] (H-P[Nle]E[Nle]RCSASVECKQKCLAAIGSIFGKC[Nle]NKKCKCYPRRY-OH; disulfide 6-27, 12-32, 16-34) | ≤ 0.3 | –

Reference: patent publication US11780893B2, “Kv1.3 blockers” (Zealand Pharma A/S, priority 2019, dated 2023)
